In experiment [1] the target is Tn-glycosylated MUC1 (UniProt P15941). Nature of the experiment: ELISA, antigen coated.
Experiment [2] shares this target. Nature of the experiment: ELISA, antibody fixed at 1 ug/ml, coated antigen titrated, absorbance 450 nm.

Amino acid sequences for entries named in this document (tags omitted). Residues count along the entry.
UniProt P15941, residues 138-197: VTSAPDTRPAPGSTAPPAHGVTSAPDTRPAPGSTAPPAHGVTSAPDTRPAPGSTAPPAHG

Where a chain is given by its changes, count along the chain named. These are yes or no findings as the source states them, for the method shown. Where no end group is shown, it is not given here. GalNAc = O-linked GalNAc (Tn antigen, GalNAc-alpha1-O-Ser/Thr)

B1: humanized 4C8 candidate 6 (4C8-HV1-46-A/LV7-46-A) (antibody, V domains shown)
VH: QVQLVQSGAEVKKPGASVKVSCKASGYTFTSYWMHWVRQAPGQGLEWIGNIYPRSGTTNYDGYFKSRATLTVDTSTSTAYMELSSLRSEDTAVYFCTRSGYDYPFVYWGQGTLVTVSS
VL: QAVVTQEPSLTVSPGGTVTLTCRTSTGAVSIRNYANWVQEKPGQAFRGLIGGTNNRAPWTPARFSGSLLGDKAALTLSGAQPEDEAEYFCALLYSNYWVFGGGTKLTVL
notes: also called Molecule Number 6
Turning to B1, in the experiment with Tn-glycosylated MUC1 [1], the binding result is given as “no binding (tested: 1 µg/mL antibody)”.

B2: humanized 4C8 candidate 7 (4C8-HV1-69-A/LV7-46-A) (antibody, V domains shown)
VH: B1 VH with A16S
VL: B1 VL
notes: also called Molecule Number 7
B2: in the experiment with Tn-glycosylated MUC1 [1], the binding entry was “no binding (tested: 1 µg/mL antibody)”.

B3: 4C8 monoclonal antibody (antibody, V domains shown)
VH: QVQLQQPGSELVRPGASVKLSCKASGYTFTSYWMHWVKQRPGQGLEWIGNIYPRSGTTNYDGYFKSKATLTVDTSSSTAYMQLSSLTSEDSAVYFCTRSGYDYPFVYWGQGTLVTVSA
VL: QAVVTQESALTTSPGETVTLTCRTSTGAVSIRNYANWVQEKPDHLFTGLIGGTNNRAPGVPARFSGSLIGDKAALTITGAQPEDEAIYFCALLYSNYWVFGGGTKLTVL
notes: Murine hybridoma antibody; also called 4C8 mAb; mAb 4C8
In the case of B3, the binding entry is “no binding (tested: 1 µg/mL 4C8 mAb)” with Tn-glycosylated MUC1 [1] and “no binding (tested: 1000 ug/ml)” in the experiment with Tn-glycosylated MUC1 [2].
